Measured values taken from the supplement of paper PMC10849652.
The list shows a part of the results.

Protein sequences, listed by entry. Tags and fused reporters are not part of them. Lines headed by an entry give the natural chain unless they say otherwise; changes in a name come on top.
UniProt Q8IXW5, whole entry, looked up: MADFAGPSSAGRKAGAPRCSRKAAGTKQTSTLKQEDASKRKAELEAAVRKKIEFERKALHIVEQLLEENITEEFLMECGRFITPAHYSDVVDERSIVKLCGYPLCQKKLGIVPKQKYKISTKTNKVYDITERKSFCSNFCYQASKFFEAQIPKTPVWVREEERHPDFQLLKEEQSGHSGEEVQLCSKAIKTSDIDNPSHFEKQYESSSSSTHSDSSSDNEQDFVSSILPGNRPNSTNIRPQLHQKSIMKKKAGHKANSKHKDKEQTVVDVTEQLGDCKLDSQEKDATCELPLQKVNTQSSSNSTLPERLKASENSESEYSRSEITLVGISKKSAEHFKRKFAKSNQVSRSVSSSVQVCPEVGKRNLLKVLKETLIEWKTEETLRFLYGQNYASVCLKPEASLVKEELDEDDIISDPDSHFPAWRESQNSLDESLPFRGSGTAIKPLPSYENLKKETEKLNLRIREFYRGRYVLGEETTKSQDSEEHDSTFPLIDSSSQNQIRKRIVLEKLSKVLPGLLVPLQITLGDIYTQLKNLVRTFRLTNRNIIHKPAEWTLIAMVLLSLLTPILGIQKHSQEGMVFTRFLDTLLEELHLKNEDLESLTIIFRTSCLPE
UniProt Q96DM3: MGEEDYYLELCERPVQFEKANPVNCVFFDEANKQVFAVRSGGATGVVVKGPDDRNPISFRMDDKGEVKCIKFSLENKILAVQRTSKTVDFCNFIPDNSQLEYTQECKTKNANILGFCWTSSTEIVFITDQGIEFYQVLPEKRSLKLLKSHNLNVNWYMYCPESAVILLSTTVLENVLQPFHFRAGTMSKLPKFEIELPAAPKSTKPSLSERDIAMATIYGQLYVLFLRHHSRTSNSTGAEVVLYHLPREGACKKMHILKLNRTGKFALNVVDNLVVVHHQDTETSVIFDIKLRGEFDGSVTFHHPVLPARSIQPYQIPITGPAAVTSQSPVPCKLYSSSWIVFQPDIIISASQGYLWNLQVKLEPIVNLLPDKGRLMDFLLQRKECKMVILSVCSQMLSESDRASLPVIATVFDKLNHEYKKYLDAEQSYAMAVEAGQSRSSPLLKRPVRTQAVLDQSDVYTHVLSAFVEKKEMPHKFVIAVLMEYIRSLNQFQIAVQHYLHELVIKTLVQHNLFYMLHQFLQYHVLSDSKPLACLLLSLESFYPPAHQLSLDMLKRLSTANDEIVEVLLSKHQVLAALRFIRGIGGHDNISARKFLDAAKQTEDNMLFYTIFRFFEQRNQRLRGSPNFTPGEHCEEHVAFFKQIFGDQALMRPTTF
UniProt Q05823: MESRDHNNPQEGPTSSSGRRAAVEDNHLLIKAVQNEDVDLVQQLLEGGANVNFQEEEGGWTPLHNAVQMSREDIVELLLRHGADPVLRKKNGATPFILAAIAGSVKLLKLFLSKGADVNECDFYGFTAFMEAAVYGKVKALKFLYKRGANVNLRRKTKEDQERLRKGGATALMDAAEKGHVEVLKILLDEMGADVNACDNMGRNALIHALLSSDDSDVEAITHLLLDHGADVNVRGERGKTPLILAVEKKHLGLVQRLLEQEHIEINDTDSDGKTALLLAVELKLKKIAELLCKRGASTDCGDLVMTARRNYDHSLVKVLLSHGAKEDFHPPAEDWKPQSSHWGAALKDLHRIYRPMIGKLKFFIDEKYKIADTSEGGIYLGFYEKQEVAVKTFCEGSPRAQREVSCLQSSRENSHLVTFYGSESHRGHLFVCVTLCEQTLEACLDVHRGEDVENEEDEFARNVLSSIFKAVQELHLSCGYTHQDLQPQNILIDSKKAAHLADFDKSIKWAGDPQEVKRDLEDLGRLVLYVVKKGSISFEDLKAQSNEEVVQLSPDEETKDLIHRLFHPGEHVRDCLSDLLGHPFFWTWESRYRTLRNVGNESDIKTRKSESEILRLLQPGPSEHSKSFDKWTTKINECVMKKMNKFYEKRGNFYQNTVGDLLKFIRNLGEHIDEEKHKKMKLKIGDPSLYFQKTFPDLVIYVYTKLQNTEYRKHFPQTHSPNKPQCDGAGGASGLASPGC
UniProt Q9NTX7: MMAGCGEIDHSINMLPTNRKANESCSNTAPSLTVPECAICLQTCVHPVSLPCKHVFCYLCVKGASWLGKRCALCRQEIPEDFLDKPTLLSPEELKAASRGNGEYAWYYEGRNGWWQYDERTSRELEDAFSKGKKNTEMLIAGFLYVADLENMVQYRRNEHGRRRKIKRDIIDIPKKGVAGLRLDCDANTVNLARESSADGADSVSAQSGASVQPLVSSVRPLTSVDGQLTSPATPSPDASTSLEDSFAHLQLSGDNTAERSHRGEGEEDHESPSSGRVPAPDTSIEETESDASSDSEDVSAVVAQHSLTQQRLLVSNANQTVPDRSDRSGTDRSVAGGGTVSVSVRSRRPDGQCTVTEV
UniProt Q96NA2: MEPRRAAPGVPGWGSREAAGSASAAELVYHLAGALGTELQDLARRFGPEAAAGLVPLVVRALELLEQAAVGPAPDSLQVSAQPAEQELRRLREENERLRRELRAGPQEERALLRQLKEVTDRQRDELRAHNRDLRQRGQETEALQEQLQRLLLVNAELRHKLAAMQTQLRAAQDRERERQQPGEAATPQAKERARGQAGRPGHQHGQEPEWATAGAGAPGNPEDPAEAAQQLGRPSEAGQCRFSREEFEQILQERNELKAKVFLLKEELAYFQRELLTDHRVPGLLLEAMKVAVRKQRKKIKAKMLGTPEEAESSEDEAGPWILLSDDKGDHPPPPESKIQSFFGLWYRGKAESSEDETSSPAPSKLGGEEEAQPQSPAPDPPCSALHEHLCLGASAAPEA
UniProt Q8IYW5, whole entry, looked up: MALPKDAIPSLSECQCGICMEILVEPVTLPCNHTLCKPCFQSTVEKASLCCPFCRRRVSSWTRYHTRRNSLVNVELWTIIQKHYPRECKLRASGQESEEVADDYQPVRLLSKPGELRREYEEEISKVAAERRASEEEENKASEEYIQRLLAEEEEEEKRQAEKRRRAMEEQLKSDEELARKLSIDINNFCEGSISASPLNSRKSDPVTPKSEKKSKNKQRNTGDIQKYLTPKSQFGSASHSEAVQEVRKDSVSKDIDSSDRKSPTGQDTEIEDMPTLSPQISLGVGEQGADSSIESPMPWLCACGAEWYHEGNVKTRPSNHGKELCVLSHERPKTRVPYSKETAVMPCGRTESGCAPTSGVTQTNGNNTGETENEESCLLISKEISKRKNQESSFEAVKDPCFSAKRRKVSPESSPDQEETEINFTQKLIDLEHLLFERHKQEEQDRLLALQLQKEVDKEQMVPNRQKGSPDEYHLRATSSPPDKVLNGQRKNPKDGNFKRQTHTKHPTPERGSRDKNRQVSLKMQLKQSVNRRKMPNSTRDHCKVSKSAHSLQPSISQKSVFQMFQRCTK
UniProt Q9H871: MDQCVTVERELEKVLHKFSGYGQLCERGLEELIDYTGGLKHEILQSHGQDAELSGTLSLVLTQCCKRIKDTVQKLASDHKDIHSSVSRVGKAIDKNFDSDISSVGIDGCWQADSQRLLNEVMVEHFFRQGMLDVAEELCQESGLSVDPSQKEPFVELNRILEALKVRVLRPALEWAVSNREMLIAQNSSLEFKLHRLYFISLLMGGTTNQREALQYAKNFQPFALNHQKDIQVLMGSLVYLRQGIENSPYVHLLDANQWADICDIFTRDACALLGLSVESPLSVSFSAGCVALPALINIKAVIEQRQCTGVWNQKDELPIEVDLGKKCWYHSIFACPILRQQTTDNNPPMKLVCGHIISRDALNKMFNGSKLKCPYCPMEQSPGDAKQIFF
UniProt O00584, whole entry, looked up: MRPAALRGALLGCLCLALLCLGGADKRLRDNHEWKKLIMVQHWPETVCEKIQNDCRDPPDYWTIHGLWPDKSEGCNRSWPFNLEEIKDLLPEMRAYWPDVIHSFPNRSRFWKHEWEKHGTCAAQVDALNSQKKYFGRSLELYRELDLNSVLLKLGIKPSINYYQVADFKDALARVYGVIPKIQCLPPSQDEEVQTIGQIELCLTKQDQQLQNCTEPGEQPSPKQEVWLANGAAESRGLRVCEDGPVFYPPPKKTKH
UniProt O14730: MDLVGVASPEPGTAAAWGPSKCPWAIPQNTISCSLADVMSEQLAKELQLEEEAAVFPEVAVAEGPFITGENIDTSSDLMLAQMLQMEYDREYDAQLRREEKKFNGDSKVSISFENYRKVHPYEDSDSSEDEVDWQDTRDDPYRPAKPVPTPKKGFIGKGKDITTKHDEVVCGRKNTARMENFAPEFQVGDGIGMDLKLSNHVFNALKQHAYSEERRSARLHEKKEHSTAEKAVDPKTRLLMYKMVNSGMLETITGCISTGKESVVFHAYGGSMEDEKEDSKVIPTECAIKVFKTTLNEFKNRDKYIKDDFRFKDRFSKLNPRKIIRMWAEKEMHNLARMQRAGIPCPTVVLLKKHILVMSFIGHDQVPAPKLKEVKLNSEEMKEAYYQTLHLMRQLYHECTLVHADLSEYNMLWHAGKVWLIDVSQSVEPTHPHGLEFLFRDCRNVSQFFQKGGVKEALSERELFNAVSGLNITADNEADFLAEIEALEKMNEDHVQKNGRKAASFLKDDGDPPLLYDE
UniProt Q06587: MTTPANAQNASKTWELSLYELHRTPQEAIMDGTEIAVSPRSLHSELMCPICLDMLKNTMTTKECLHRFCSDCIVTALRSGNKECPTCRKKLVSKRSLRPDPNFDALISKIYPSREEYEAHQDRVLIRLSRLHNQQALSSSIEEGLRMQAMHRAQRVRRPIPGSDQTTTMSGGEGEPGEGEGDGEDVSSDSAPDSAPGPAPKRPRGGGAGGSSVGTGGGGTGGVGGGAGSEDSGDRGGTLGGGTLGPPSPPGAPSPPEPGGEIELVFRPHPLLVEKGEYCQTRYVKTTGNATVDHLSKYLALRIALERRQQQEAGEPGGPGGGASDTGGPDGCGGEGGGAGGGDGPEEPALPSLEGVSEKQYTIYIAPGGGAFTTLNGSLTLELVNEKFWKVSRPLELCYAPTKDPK
UniProt Q8IXI2: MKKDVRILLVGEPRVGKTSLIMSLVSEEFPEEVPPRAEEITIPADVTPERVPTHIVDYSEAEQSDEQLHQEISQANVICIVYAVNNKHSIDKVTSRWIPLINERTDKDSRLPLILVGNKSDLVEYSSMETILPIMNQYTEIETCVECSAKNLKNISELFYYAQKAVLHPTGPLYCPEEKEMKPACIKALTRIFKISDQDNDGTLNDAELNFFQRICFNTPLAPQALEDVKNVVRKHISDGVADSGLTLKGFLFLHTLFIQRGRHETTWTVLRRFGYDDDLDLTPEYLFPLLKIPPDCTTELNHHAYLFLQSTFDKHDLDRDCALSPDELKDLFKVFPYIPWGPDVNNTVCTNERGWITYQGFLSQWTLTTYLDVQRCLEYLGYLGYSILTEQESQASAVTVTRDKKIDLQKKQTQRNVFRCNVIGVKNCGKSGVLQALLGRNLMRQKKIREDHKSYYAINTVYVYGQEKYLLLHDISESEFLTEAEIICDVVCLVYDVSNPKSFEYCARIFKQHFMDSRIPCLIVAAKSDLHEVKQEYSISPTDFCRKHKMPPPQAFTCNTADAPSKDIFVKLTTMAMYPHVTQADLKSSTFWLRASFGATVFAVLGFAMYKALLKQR
UniProt Q9BVS4: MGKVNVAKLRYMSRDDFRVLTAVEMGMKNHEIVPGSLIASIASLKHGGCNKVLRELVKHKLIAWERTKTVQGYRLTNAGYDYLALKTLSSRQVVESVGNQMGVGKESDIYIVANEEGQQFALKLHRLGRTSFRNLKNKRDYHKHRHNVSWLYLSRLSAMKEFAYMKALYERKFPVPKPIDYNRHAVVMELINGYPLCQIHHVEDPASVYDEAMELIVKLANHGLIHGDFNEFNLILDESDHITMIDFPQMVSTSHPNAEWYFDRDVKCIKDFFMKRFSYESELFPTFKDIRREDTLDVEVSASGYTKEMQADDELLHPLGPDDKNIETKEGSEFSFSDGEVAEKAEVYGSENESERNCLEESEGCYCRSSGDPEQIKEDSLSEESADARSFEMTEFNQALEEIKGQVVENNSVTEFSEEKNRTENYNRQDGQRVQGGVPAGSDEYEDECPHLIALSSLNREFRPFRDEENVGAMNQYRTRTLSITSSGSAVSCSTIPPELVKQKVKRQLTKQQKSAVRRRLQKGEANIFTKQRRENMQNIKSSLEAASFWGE
UniProt Q9Y508: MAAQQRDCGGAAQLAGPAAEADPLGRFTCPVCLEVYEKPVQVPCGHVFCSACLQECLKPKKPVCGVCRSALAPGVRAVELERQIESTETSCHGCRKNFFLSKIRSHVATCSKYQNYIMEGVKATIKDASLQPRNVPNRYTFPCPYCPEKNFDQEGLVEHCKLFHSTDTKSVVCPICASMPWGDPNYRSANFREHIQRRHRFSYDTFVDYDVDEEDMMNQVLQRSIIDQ
UniProt Q8TDP1: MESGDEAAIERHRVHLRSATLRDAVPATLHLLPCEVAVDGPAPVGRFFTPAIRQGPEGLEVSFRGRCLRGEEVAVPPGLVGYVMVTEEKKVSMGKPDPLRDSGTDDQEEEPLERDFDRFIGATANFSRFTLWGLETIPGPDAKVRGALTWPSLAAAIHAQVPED

Assays:
Assay in all cases: log2 fold change, soluble protein after heating vs DMSO (PISA); higher = thermal stabilisation; K562 lysate, 10 uM; active = over 0.2 and 3.5 SD of the protein, either way, in both replicates (recomputed)
lapatinib = compound: CS(=O)(=O)CCNCc1ccc(-c2ccc3ncnc(Nc4ccc(OCc5cccc(F)c5)c(Cl)c4)c3c2)o1 [lapatinib]
Method in brief: (§1)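 Thermal stability, expressed as log-two fold change relative to solvent controls, is given from duplicates. Crude K562 extract in PBS pH 7.4 with 1 mM MgCl2, at 1 mg/mL protein, was treated with 10 μM compound for 30 min and heated in aliquots for 3 min across 48°C-58°C. After pooling, adjustment to 0.5% NP-40 at 4°C and centrifugation at 21,000xg for 90 min, supernatant protein was measured by TMTpro 16plex LC-MS/MS with channel sums equalised.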

pictilisib = compound: CS(=O)(=O)N1CCN(Cc2cc3nc(-c4cccc5[nH]ncc45)nc(N4CCOCC4)c3s2)CC1 [pictilisib]
Method in brief: as §1

crizotinib = compound: C[C@@H](Oc1cc(-c2cnn(C3CCNCC3)c2)cnc1N)c1c(Cl)ccc(F)c1Cl [crizotinib]
Method in brief: as §1

[1] = compound: C[C@H](C1=CC=C(C=C1)C(=O)NC2=C3C=CNC3=NC=C2)N
Method in brief: as §1

duvelisib = compound: C[C@H](Nc1ncnc2nc[nH]c12)c1cc2cccc(Cl)c2c(=O)n1-c1ccccc1 [duvelisib]
Method in brief: as §1

gandotinib = compound: Cc1cc(Nc2cc(CN3CCOCC3)c3nc(C)c(Cc4ccc(Cl)cc4F)n3n2)n[nH]1 [gandotinib]
Method in brief: as §1

tozasertib = compound: Cc1cc(Nc2cc(N3CCN(C)CC3)nc(Sc3ccc(NC(=O)C4CC4)cc3)n2)n[nH]1 [tozasertib]
Method in brief: as §1

doramapimod = compound: Cc1ccc(-n2nc(C(C)(C)C)cc2NC(=O)Nc2ccc(OCCN3CCOCC3)c3ccccc23)cc1 [doramapimod]
Method in brief: as §1

bafetinib = compound: Cc1ccc(NC(=O)c2ccc(CN3CC[C@H](N(C)C)C3)c(C(F)(F)F)c2)cc1Nc1nccc(-c2cncnc2)n1 [bafetinib]
Method in brief: as §1

[2] = compound: Cc1cccc(CC(=O)N2CCc3c2ccc(-c2cn(C)c4ncnc(N)c24)c3F)n1
Method in brief: as §1

Measured: log2 fold change

RPL14 (UniProt P50914)
inactive: lapatinib -0.016 | pictilisib -0.007 | crizotinib 0.039 | [1] 0.04 | duvelisib 0.011 | gandotinib -0.036 | tozasertib -0.065 | doramapimod -0.129 | bafetinib 0.033 | [2] -0.022

RPAP2 (UniProt Q8IXW5)
inactive: lapatinib 0.026 | pictilisib -0.005 | crizotinib -0.055 | [1] -0.073 | duvelisib 0.054 | gandotinib -0.017 | tozasertib 0.009 | doramapimod 0.01 | bafetinib -0.029 | [2] 0.06

RMI1 (UniProt Q9H9A7)
inactive: lapatinib 0.127 | pictilisib -0.005 | crizotinib 0.059 | [1] -0.038 | duvelisib 0.025 | gandotinib -0.013 | tozasertib -0.034 | doramapimod -0.009 | bafetinib 0.026 | [2] 0.044

RPL13A (UniProt P40429)
inactive: lapatinib -0.027 | pictilisib -0.017 | crizotinib 0.001 | [1] -0.002 | duvelisib 0.024 | gandotinib -0.004 | tozasertib -0.011 | doramapimod 0.02 | bafetinib 0.003 | [2] 0.005

RMC1 (UniProt Q96DM3)
inactive: lapatinib -0.036 | pictilisib -0.011 | crizotinib -0.013 | [1] -0.029 | duvelisib 0.024 | gandotinib -0.051 | tozasertib -0.056 | doramapimod 0.012 | bafetinib -0.062 | [2] 0.035

RPL22 (UniProt P35268)
inactive: lapatinib -0.007 | pictilisib -0.002 | crizotinib -0.009 | [1] -0.069 | duvelisib 0.045 | gandotinib 0.016 | tozasertib -0.011 | doramapimod -0.002 | bafetinib -0.035 | [2] 0.008

RNASEL (UniProt Q05823)
inactive: lapatinib -0.034 | pictilisib -0.076 | crizotinib -0.04 | [1] -0.011 | duvelisib 0.007 | gandotinib -0.068 | tozasertib -0.014 | doramapimod -0.007 | bafetinib -0.018 | [2] -0.013

RNF146 (UniProt Q9NTX7)
inactive: lapatinib 0.036 | pictilisib -0.054 | crizotinib -0.024 | [1] -0.023 | duvelisib 0.023 | gandotinib 0.01 | tozasertib 0.029 | doramapimod 0.025 | bafetinib 0.044 | [2] -0.011

RPL24 (UniProt P83731)
inactive: lapatinib -0.01 | pictilisib 0.041 | crizotinib 0.012 | [1] 0.041 | duvelisib 0.015 | gandotinib -0.016 | tozasertib -0.028 | doramapimod -0.012 | bafetinib 0.049 | [2] -0.002

RPL19 (UniProt P84098)
inactive: lapatinib -0.022 | pictilisib -0.002 | crizotinib 0.028 | [1] 0.111 | duvelisib -0.005 | gandotinib -0.082 | tozasertib -0.038 | doramapimod 0.001 | bafetinib 0.018 | [2] -0.125

RILP (UniProt Q96NA2)
inactive: lapatinib -0.005 | pictilisib -0.034 | crizotinib -0.004 | [1] -0.043 | duvelisib -0.02 | gandotinib 0 | tozasertib -0.018 | doramapimod 0.02 | bafetinib -0.023 | [2] -0.005

RNF34 isoform 2 (UniProt Q969K3)
inactive: lapatinib 0.099 | pictilisib 0.228 | crizotinib -0.083 | [1] -0.02 | duvelisib -0.035 | gandotinib 0.042 | tozasertib -0.047 | doramapimod 0.122 | bafetinib 0.028 | [2] 0.088

RNF168 (UniProt Q8IYW5)
inactive: lapatinib -0.034 | pictilisib 0.063 | crizotinib 0.027 | [1] -0.015 | duvelisib 0.037 | gandotinib 0.002 | tozasertib -0.088 | doramapimod -0.008 | bafetinib -0.212 | [2] -0.036

RMND5A (UniProt Q9H871)
inactive: lapatinib -0.022 | pictilisib 0.002 | crizotinib -0.093 | [1] -0.1 | duvelisib 0.007 | gandotinib 0.022 | tozasertib 0.056 | doramapimod 0.063 | bafetinib -0.034 | [2] 0.08

RNASET2 (UniProt O00584)
inactive: lapatinib 0.005 | pictilisib -0.033 | crizotinib 0.003 | [1] -0.02 | duvelisib 0.02 | gandotinib 0.022 | tozasertib -0.013 | doramapimod -0.034 | bafetinib 0.039 | [2] -0.021

RPL3 (UniProt P39023)
inactive: lapatinib -0.096 | pictilisib 0.009 | crizotinib 0.092 | [1] 0.094 | duvelisib 0.021 | gandotinib -0.064 | tozasertib 0.008 | doramapimod -0.042 | bafetinib 0.017 | [2] -0.082

RIOK3 (UniProt O14730)
inactive: lapatinib 0.026 | pictilisib -0.032 | crizotinib -0.031 | [1] 0.021 | duvelisib -0.007 | gandotinib -0.009 | tozasertib -0.008 | doramapimod 0.036 | bafetinib -0.021 | [2] 0.008

RING1 (UniProt Q06587)
inactive: lapatinib -0.008 | pictilisib -0.024 | crizotinib -0.035 | [1] -0.048 | duvelisib -0.007 | gandotinib 0.052 | tozasertib 0.005 | doramapimod -0.035 | bafetinib 0.04 | [2] 0.061

RNF123 (UniProt Q5XPI4)
inactive: lapatinib -0.013 | pictilisib -0.029 | crizotinib -0.015 | [1] -0.04 | duvelisib -0.068 | gandotinib -0.122 | tozasertib 0.029 | doramapimod 0.039 | bafetinib -0.002 | [2] 0.011

RHOT1 isoform 3 (UniProt Q8IXI2)
inactive: lapatinib -0.011 | pictilisib 0.026 | crizotinib -0.029 | [1] -0.094 | duvelisib -0.006 | gandotinib -0.025 | tozasertib 0.035 | doramapimod 0.088 | bafetinib -0.129 | [2] 0.024

RHOA (UniProt P61586)
inactive: lapatinib 0.009 | pictilisib 0.314 | crizotinib 0.035 | duvelisib -0.023 | gandotinib -0.058 | tozasertib -0.092 | doramapimod -0.036 | bafetinib 0.08 | [2] -0.138
active: [1] 0.345

RIOK2 (UniProt Q9BVS4)
inactive: lapatinib -0.032 | pictilisib 0.269 | crizotinib 0.047 | [1] -0.028 | duvelisib 0.016 | tozasertib -0.011 | doramapimod -0.028 | bafetinib 0.093 | [2] -0.012
active: gandotinib 0.829

RICTOR isoform 3 (UniProt Q6R327)
inactive: lapatinib -0.024 | pictilisib -0.094 | crizotinib -0.086 | [1] 0.031 | duvelisib 0.022 | gandotinib -0.202 | tozasertib -0.011 | doramapimod 0.117 | bafetinib -0.056 | [2] -0.114

RNF114 (UniProt Q9Y508)
inactive: lapatinib 0.023 | pictilisib 0.007 | crizotinib 0.009 | [1] -0.025 | duvelisib 0.021 | gandotinib 0.011 | tozasertib -0.022 | doramapimod -0.002 | bafetinib 0.018 | [2] -0.003

RNASEH2C (UniProt Q8TDP1)
inactive: lapatinib 0.008 | pictilisib 0.008 | crizotinib -0.02 | [1] -0.181 | duvelisib 0.002 | gandotinib 0.017 | tozasertib 0.023 | doramapimod 0.011 | bafetinib -0.024 | [2] 0.075

RNF17 (UniProt Q9BXT8)
inactive: lapatinib -0.02 | pictilisib 0.031 | crizotinib 0.105 | [1] 0.08 | duvelisib -0.071 | gandotinib 0.028 | tozasertib 0.119 | doramapimod 0.006 | bafetinib -0.285 | [2] -0.257

2 neighbouring entries already listed:
RIOK2 (UniProt Q9BVS4)
inactive: lapatinib -0.032 | pictilisib 0.269 | crizotinib 0.047 | [1] -0.028 | duvelisib 0.016 | tozasertib -0.011 | doramapimod -0.028 | bafetinib 0.093 | [2] -0.012
active: gandotinib 0.829

RICTOR isoform 3 (UniProt Q6R327)
inactive: lapatinib -0.024 | pictilisib -0.094 | crizotinib -0.086 | [1] 0.031 | duvelisib 0.022 | gandotinib -0.202 | tozasertib -0.011 | doramapimod 0.117 | bafetinib -0.056 | [2] -0.114

The list goes on:

RPL36A (UniProt P83881)
inactive: lapatinib -0.028 | pictilisib 0.066 | crizotinib -0.009 | [1] -0.034 | duvelisib -0.038 | gandotinib 0.036 | tozasertib -0.037 | doramapimod -0.007 | bafetinib -0.063 | [2] 0.043
